{"source": "PubChem BioAssay AID216", "about": "(DTP/NCI, 2004)", "system": "BDF1 mice, P288 leukemia ip, survival T/C", "experiment": "NCI In Vivo Anticancer Drug Screen. Data for tumor model P288 Lymphocytic Leukemia (intraperitoneal) in B6D2F1 (BDF1) mice", "conditions": "T/C endpoint: survival time, mean or median, higher T/C = longer survival", "method": "The antitumor activity of compounds was measured in mice bearing transplantable tumors. Survival or tumor size were measured and the results are expressed as the measurement made in the treated group (T) divided by the measurement made in the vehicle treated control group (C). The tumor model used in this assay is P288 Lymphocytic Leukemia (intraperitoneal) in B6D2F1 (BDF1) mice", "key": {"[1]": {"conditions": "dose: 15.6 mg/kg/injection, schedule: Q01DX010 (ip), vehicle: saline"}}, "note": "The list shows only some results of the screen, not a fair sample: it is rich in T/C values a quarter to a half above the control, in often repeated tests (any T/C) and in doses without a T/C. Other doses and runs of a compound stand elsewhere. T/C: endpoint of the treated group in % of that of the vehicle group. Some entries give survivors of the animals treated and no T/C: the source files T/C as zero there, which appears to mark a toxic dose or a test without result, not a measured value. Some doses without a T/C left all or most animals alive at the check, yet need not have been tolerated: survival well below the control is almost never listed, so the zero probably covers shortened survival too. Survivors were counted at the toxicity check, usually on the fifth day, unless a day is given; later deaths do not show. Schedule codes are those of the source, taken here to give the interval after Q, in days (D) or hours (H), and the number of doses after X. Some schedule codes hold Z or #, which are not explained here. Where survival is the endpoint, the PubChem record calls one and a half times the control and up active, and a quarter to a half above the control has no call in these data; cut-offs in other NCI protocols can differ. Some entries hold several experiments; their values stand side by side, smallest first. Marks such as (2×) stand for listed records that agree. Some T/C values carry the count of animals alive at the toxicity check (mostly the fifth day); without a count, all were alive then. Numbered stars: 1 amine (or outer) side, 2 acyl side, 3 side chain; on linkers, the order of the positions; unused ones are H or OH. Bridge positions count the residues as written; N and C are the ends. Square brackets hold non-standard residues; d marks the D form. Peptide text beside a SMILES is read from it. I, II: the chains in the order shown. Actinocin(9to1) = Cc1c2oc3c(C)ccc(C(=O)[*:1])c3nc-2c(C(=O)[*:2])c(N)c1=O; aThr = C[C@H](O)[C@H](N)C(=O)O; NMeV = CN[C@H](C(=O)O)C(C)C; Sar = CNCC(=O)O"}
{"molecule": "Cn1cnc([N+](=O)[O-])c1Sc1nc(N)nc2nc[nH]c12", "values": [{"measurement": "survivor count", "setting": "dose: 1.0 mg/kg/injection, schedule: Q01DX Z (ip), vehicle: carboxymethylcellulose (CMC)", "value": "6 of 6"}, {"measurement": "survivor count", "setting": "dose: 2.0 mg/kg/injection, schedule: Q01DX Z (ip), vehicle: carboxymethylcellulose (CMC)", "value": "6 of 6"}, {"measurement": "survivor count", "setting": "dose: 4.0 mg/kg/injection, schedule: Q01DX Z (ip), vehicle: carboxymethylcellulose (CMC)", "value": "6 of 6"}, {"measurement": "survivor count", "setting": "dose: 8.0 mg/kg/injection, schedule: Q01DX Z (ip), vehicle: carboxymethylcellulose (CMC)", "value": "6 of 6"}]}
{"molecule": "CCN(CC)c1ccc2cc3ccc(=[N+](CC)CC)cc-3oc2c1", "values": [{"measurement": "survivor count", "setting": "dose: 10.0 mg/kg/injection, schedule: Q01DX Z (ip), vehicle: carboxymethylcellulose (CMC)", "value": "4 of 6"}, {"measurement": "survivor count", "setting": "dose: 20.0 mg/kg/injection, schedule: Q01DX Z (ip), vehicle: carboxymethylcellulose (CMC)", "value": "0 of 6"}]}
{"molecule": "CS(=O)(=O)OCC(O)C(O)COS(C)(=O)=O", "note": "(stereo not drawn)", "values": [{"measurement": "T/C", "setting": "dose: 400.0 mg/kg/injection, schedule: Q01DX010 (ip), vehicle: saline", "value": "127 % of control"}]}
{"molecule": "N[C@@H](Cc1ccc(N(CCCl)CCCl)cc1)C(=O)O", "values": [{"measurement": "T/C", "setting": "dose: 0.31 mg/kg/injection, schedule: Q01DX Z (ip), vehicle: saline", "value": "125 % of control"}, {"measurement": "survivor count", "setting": "dose: 20.0 mg/kg/injection, schedule: Q01DX Z (ip), vehicle: saline", "value": "6 of 6"}]}
{"molecule": "CN1CC[C@]23c4c5ccc(O)c4O[C@H]2C(=O)CC[C@H]3[C@H]1C5", "values": [{"measurement": "survivor count", "setting": "dose: 4.0 mg/kg/injection, schedule: Q01DX010 (ip), vehicle: saline", "value": "6 of 6"}, {"measurement": "survivor count", "setting": "dose: 8.0 mg/kg/injection, schedule: Q01DX010 (ip), vehicle: saline", "value": "6 of 6"}, {"measurement": "survivor count", "setting": "dose: 16.0 mg/kg/injection, schedule: Q01DX010 (ip), vehicle: saline", "value": "6 of 6"}, {"measurement": "survivor count", "setting": "dose: 32.0 mg/kg/injection, schedule: Q01DX010 (ip), vehicle: saline", "value": "6 of 6"}]}
{"molecule": "Cc1c2oc3c(C)ccc(C(=O)N[C@@H]4C(=O)N[C@H](C(C)C)C(=O)N5CCC[C@H]5C(=O)N(C)CC(=O)N(C)[C@@H](C(C)C)C(=O)O[C@H]4C)c3nc-2c(C(=O)N[C@@H]2C(=O)N[C@H](C(C)C)C(=O)N3CCC[C@H]3C(=O)N(C)CC(=O)N(C)[C@@H](C(C)C)C(=O)O[C@H]2C)c(N)c1=O", "note": "(I: [aThr][dV]P[Sar][NMeV] / II: [aThr][dV]P[Sar][NMeV]; ester I:1-I:C, II:1-II:C; linker I:N-II:N via Actinocin(9to1))", "values": [{"measurement": "T/C", "setting": "dose: 0.01 mg/kg/injection, schedule: Q01DX010 (ip), vehicle: other", "value": "133 % of control"}, {"measurement": "T/C", "setting": "dose: 0.03 mg/kg/injection, schedule: Q01DX010 (ip), vehicle: other", "value": "138 % of control"}, {"measurement": "T/C", "setting": "dose: 0.1 mg/kg/injection, schedule: Q01DX010 (ip), vehicle: other", "value": "133 % of control"}]}
{"molecule": "O=C(Nc1ccc(C2=NCCN2)cc1)c1ccc(C(=O)Nc2ccc(C3=NCCN3)cc2)cc1", "values": [{"measurement": "T/C", "setting": "dose: 4.0 mg/kg/injection, schedule: Q01DX010 (ip), vehicle: other", "value": "133 and 140 % of control"}, {"measurement": "T/C", "setting": "dose: 16.0 mg/kg/injection, schedule: Q01DX010 (ip), vehicle: other", "value": "136 % of control [5 of 6 alive]"}, {"measurement": "T/C", "setting": "dose: 32.0 mg/kg/injection, schedule: Q01DX010 (ip), vehicle: other", "value": "132 % of control"}, {"measurement": "T/C", "setting": "dose: 100.0 mg/kg/injection, schedule: Q01DX Z (ip), vehicle: carboxymethylcellulose (CMC)", "value": "133 % of control"}, {"measurement": "survivor count", "setting": "dose: 400.0 mg/kg/injection, schedule: Q01DX Z (ip), vehicle: carboxymethylcellulose (CMC)", "value": "2 of 6"}]}
{"molecule": "CCOC(=O)c1[nH]c2ccccc2c1CN(CCCl)CCCl", "values": [{"measurement": "survivor count", "setting": "dose: 10.0 mg/kg/injection, schedule: Q01DX010 (ip), vehicle: saline", "value": "6 of 6"}, {"measurement": "survivor count", "setting": "dose: 80.0 mg/kg/injection, schedule: Q01DX010 (ip), vehicle: saline", "value": "1 of 6"}]}
{"molecule": "C[C@]12CCC(=O)C[C@H]1CC[C@@H]1[C@@H]2CC[C@@]2(C)[C@H]1CC[C@]2(C)O", "values": [{"measurement": "survivor count", "setting": "dose: 125.0 mg/kg/injection, schedule: Q01DX Z (sc), vehicle: steroid suspending solution", "value": "6 of 6"}]}
{"molecule": "CCN(CC)C(=S)S", "values": [{"measurement": "survivor count", "setting": "dose: 250.0 mg/kg/injection, schedule: Q01DX Z (ip), vehicle: other", "value": "3 of 6"}, {"measurement": "survivor count", "setting": "dose: 500.0 mg/kg/injection, schedule: Q01DX Z (ip), vehicle: other", "value": "5 of 6"}, {"measurement": "T/C", "setting": "dose: 1000.0 mg/kg/injection, schedule: Q01DX Z (ip), vehicle: other", "value": "125 % of control"}, {"measurement": "survivor count", "setting": "dose: 2000.0 mg/kg/injection, schedule: Q01DX Z (ip), vehicle: other", "value": "2 of 6"}]}
{"molecule": "CCCCNc1ncnc2c1cnn2C", "values": [{"measurement": "survivor count", "setting": "dose: 1.95 mg/kg/injection, schedule: Q01DX Z (ip), vehicle: carboxymethylcellulose (CMC)", "value": "6 of 6"}, {"measurement": "survivor count", "setting": "dose: 3.9 mg/kg/injection, schedule: Q01DX Z (ip), vehicle: carboxymethylcellulose (CMC)", "value": "6 of 6"}, {"measurement": "survivor count", "setting": "dose: 7.8 mg/kg/injection, schedule: Q01DX Z (ip), vehicle: carboxymethylcellulose (CMC)", "value": "6 of 6"}, {"measurement": "T/C", "setting": "[1]", "value": "88, 90, 100 % of control"}, {"measurement": "survivor count", "setting": "[1]", "value": "6 of 6"}, {"measurement": "survivor count", "setting": "dose: 15.6 mg/kg/injection, schedule: Q01DX Z (ip), vehicle: carboxymethylcellulose (CMC)", "value": "6 of 6"}, {"measurement": "survivor count", "setting": "dose: 31.2 mg/kg/injection, schedule: Q01DX Z (ip), vehicle: carboxymethylcellulose (CMC)", "value": "6 of 6"}, {"measurement": "T/C", "setting": "dose: 31.3 mg/kg/injection, schedule: Q01DX010 (ip), vehicle: saline", "value": "94, 100 (2×), 105 % of control"}, {"measurement": "T/C", "setting": "dose: 62.5 mg/kg/injection, schedule: Q01DX010 (ip), vehicle: saline", "value": "95, 100, 105 % of control (2×)"}, {"measurement": "survivor count", "setting": "dose: 62.5 mg/kg/injection, schedule: Q01DX Z (ip), vehicle: carboxymethylcellulose (CMC)", "value": "6 of 6"}, {"measurement": "T/C", "setting": "dose: 125.0 mg/kg/injection, schedule: Q01DX010 (ip), vehicle: saline", "value": "88 [5 of 6 alive], 90 [5 of 6 alive], 94 % of control [5 of 6 alive] (2×)"}, {"measurement": "survivor count", "setting": "dose: 125.0 mg/kg/injection, schedule: Q01DX Z (ip), vehicle: carboxymethylcellulose (CMC)", "value": "4 of 6"}]}
{"molecule": "C1CN1c1nc(N2CC2)nc(N2CC2)n1", "values": [{"measurement": "survivor count", "setting": "dose: 0.13 mg/kg/injection, schedule: Q01DX010 (ip), vehicle: saline", "value": "6 of 6"}, {"measurement": "survivor count", "setting": "dose: 1.0 mg/kg/injection, schedule: Q01DX010 (ip), vehicle: saline", "value": "5 of 6"}]}
{"molecule": "O=C(Nc1ccc(C2=NCCCN2)cc1)c1ccc(C(=O)Nc2ccc(C3=NCCCN3)cc2)cc1", "values": [{"measurement": "T/C", "setting": "dose: 0.8 mg/kg/injection, schedule: Q01DX Z (ip), vehicle: water", "value": "130 and 136 % of control [5 of 6 alive]"}, {"measurement": "T/C", "setting": "dose: 1.0 mg/kg/injection, schedule: Q01DX010 (ip), vehicle: other", "value": "136 % of control"}, {"measurement": "survivor count", "setting": "dose: 6.3 mg/kg/injection, schedule: Q01DX Z (ip), vehicle: water", "value": "1 of 6"}, {"measurement": "survivor count", "setting": "dose: 8.0 mg/kg/injection, schedule: Q01DX010 (ip), vehicle: other", "value": "6 of 6"}]}
{"molecule": "Clc1ncnc2nc[nH]c12", "values": [{"measurement": "survivor count", "setting": "dose: 15.0 mg/kg/injection, schedule: Q01DX010 (ip), vehicle: saline", "value": "5 of 6"}, {"measurement": "survivor count", "setting": "dose: 60.0 mg/kg/injection, schedule: Q01DX010 (ip), vehicle: saline", "value": "6 of 6"}, {"measurement": "survivor count", "setting": "dose: 500.0 mg/kg/injection, schedule: Q01DX Z (ip), vehicle: carboxymethylcellulose (CMC)", "value": "0 of 6"}]}
{"molecule": "Nc1nc(N)c2nc(CNc3ccc(C(=O)NC(CCC(=O)O)C(=O)O)cc3)cnc2n1", "note": "(stereo not drawn)", "values": [{"measurement": "survivor count", "setting": "dose: 0.06 mg/kg/injection, schedule: Q01DX Z (ip), vehicle: saline", "value": "5 of 6"}, {"measurement": "survivor count", "setting": "dose: 0.12 mg/kg/injection, schedule: Q01DX Z (ip), vehicle: saline", "value": "6 of 6"}, {"measurement": "survivor count", "setting": "dose: 0.25 mg/kg/injection, schedule: Q01DX Z (ip), vehicle: saline", "value": "5 of 6"}, {"measurement": "survivor count", "setting": "dose: 0.5 mg/kg/injection, schedule: Q01DX Z (ip), vehicle: saline", "value": "5 of 6"}]}
